Measured values reported in article PMC4972190, “In vitro activity of salinomycin and monensin derivatives against Trypanosoma brucei” (Parasites & Vectors, 2016).

Test system: Bloodstream forms of T. brucei (clone 427-221a)
Assay: Toxicity assay (resazurin, 72 h) on bloodstream forms of T. brucei
Type: cell-based, Trypanosoma brucei
Conditions: relative to salinomycin
Protocol: Bloodstream forms of T. brucei (clone 427-221a) and human myeloid leukaemia HL-60 cells were grown in Baltz medium and RPMI medium, respectively. Both culture media were supplemented with 16.7 % (v/v) heat-inactivated foetal calf serum. All cultures were maintained in a humidified atmosphere containing 5 % CO2 at 37 °C.
Cells were seeded in 96-well plates in a final volume of 200 μl of their respective culture medium containing 10-fold serial dilutions of ionophore derivatives (10^-4 to 10^-10 M) and 1 % DMSO. Wells containing medium and 1 % DMSO served as controls. The initial cell densities were 1 × 10^4/ml for T. brucei and 1 × 10^5/ml for HL-60 cells. After 24 h incubation at 37 °C in a humidified atmosphere containing 5 % CO2, 20 μl of a 0.44 mM resazurin solution prepared in PBS was added and the cells were incubated for a further 48 h so that the total incubation time was 72 h. Thereafter, the plates were read on a microplate reader using a test wavelength of 570 nm and a reference wavelength of 630 nm. The 50 % growth inhibition (GI50) value, i.e. the concentration of a compound necessary to reduce the growth rate of cells by 50 % compared to the control was determined by linear interpolation according to the method described in [22]. The minimum inhibitory concentration (MIC) values, i.e. the concentration of the drug at which all trypanosome and human cells were killed, was determined microscopically. Each compound was independently tested three times.

SMILES | times more trypanocidal than salinomycin | times less trypanocidal than its parent compound
CC[C@@]1([C@@H]2O[C@@H]([C@H]3O[C@@](O)(CO)[C@H](C)C[C@@H]3C)C[C@@H]2C)CC[C@H]([C@]2(C)CC[C@]3(C[C@H](O)[C@@H](C)[C@@H]([C@@H](C)[C@@H](OC)[C@H](C)C(=O)O)O3)O2)O1 [Monensin, monensin] | 6–10 | 
CCCCNC(=O)C(CC)C1CCC(C)C(C(C)C(O)C(C)C(=O)C(CC)C2OC3(C=CC(O)C4(CCC(C)(C5CCC(O)(CC)C(C)O5)O4)O3)C(C)CC2C)O1 (stereo not drawn) [SAL-AM2, salinomycin n-butyl amide] | 4.5 | 
CCCCOC(=O)C(CC)C1CCC(C)C(C(C)C(O)C(C)C(=O)C(CC)C2OC3(C=CC(O)C4(CCC(C)(C5CCC(O)(CC)C(C)O5)O4)O3)C(C)CC2C)O1 (stereo not drawn) [SAL-E4] |  | 17
